Results deposited as PubChem BioAssay AID686938 (Drosophila RNAi Screening Center, 2013).
Assay: 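Knock-downs reducing store-operated calcium influx in Drosophila cells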 (primary screen). System: Drosophila S2R+ cells. Reagent: long dsRNA against Drosophila genes, about 0.25 µg dsRNA per well, roughly 10,000 cells. Timing: 5 days of knock-down before the calcium assay. Challenge: thapsigargin (SERCA pump blocker) to empty calcium stores; entry signal taken 4 min after adding it. Measurement: 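Per-well fluo-4 fluorescence in two replicates, unnormalised, measured in resting cells and 4 min after store depletion by the SERCA blocker thapsigargin; ratio of the two present in few wells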. Scale: calcium entry signal: higher = stronger calcium signal after store depletion; entry to resting ratio: higher = more calcium entry relative to resting level; resting calcium signal: higher = higher resting calcium signal. Call rule: 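Hit if the duplicate-averaged plate z-score for entry over resting signal is under −3; wells with weak total dye signal (Fmax z < −2) or more than 5 off-targets removed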. Calls: active = strongly reduced calcium entry; inactive = no strong reduction.
The deposit covers about 23,000 reagents; below is a random part of those with a known target gene and a result. Over the whole deposit, 75 (0.33%) got an active call. 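Raw plate signals without normalisation; calls rest on plate z-scores that were not deposited; ratio present for only 364 wells.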 Entries without a mark were called inactive. A plus sign joins genes that one reagent is predicted to hit. The record does not give: the dose of the treatment.

| gene knocked down | dsRNA | calcium entry signal, replicate 1 (fluorescence units) | calcium entry signal, replicate 2 (fluorescence units) | entry to resting ratio | resting calcium signal, replicate 1 (fluorescence units) | resting calcium signal, replicate 2 (fluorescence units) |
| --- | --- | --- | --- | --- | --- | --- |
| CG32280 | DRSC08024 | 3.56e7 | 2.97e7 | – | 1.51e7 | 1.38e7 |
| Obp83b (Odorant-binding protein 83b) | DRSC12360 | 4.20e7 | 2.81e7 | – | 2.03e7 | 1.40e7 |
| ATPsynCF6 (ATP synthase, coupling factor 6) | DRSC14092 | 4.52e7 | 4.61e7 | – | 2.36e7 | 2.17e7 |
| wkd (whacked) | DRSC15777 | 4.53e7 | 3.79e7 | – | 2.13e7 | 1.86e7 |
| Ccp84Ab | DRSC12587 | 3.93e7 | 2.94e7 | – | 2.15e7 | 1.61e7 |
| CG17234 | DRSC00490 | 2.83e7 | 3.13e7 | – | 1.42e7 | 1.46e7 |
| Nrg (Neuroglian) | DRSC17573 | 3.06e7 | 3.22e7 | – | 1.54e7 | 1.62e7 |
| Nrg (Neuroglian) | DRSC18688 | 2.87e7 | 3.53e7 | – | 1.29e7 | 1.56e7 |
| timeout | DRSC12950 | 2.54e7 | 2.59e7 | – | 1.21e7 | 1.22e7 |
| timeout | DRSC17078 | 2.54e7 | 3.08e7 | – | 1.28e7 | 4.51e7 |
| timeout | DRSC17079 | 2.19e7 | 2.66e7 | – | 1.15e7 | 4.91e7 |
| timeout | DRSC17080 | 2.17e7 | 2.74e7 | – | 1.16e7 | 4.19e7 |
| timeout | DRSC17081 | 2.83e7 | 6.58e7 | – | 1.33e7 | 9.22e7 |
| timeout | DRSC21535 | 3.78e7 | 3.83e7 | – | 2.12e7 | 1.79e7 |
| CG10465 | DRSC04848 | 3.19e7 | 4.13e7 | – | 1.81e7 | 1.81e7 |
| RpL22-like (Ribosomal protein L22-like) | DRSC04582 | 2.19e7 | 3.00e7 | – | 1.22e7 | 1.29e7 |
| Adk2 (Adenosine kinase 2) | DRSC09827 | 5.71e7 | 3.97e7 | – | 3.42e7 | 1.67e7 |
| loaf (lost and found) | DRSC09130 | 3.93e7 | 4.65e7 | – | 2.15e7 | 2.25e7 |
| CG5174 | DRSC06920 | 3.51e7 | 4.75e7 | – | 1.60e7 | 2.18e7 |
| ProRS-m (Prolyl-tRNA synthetase, mitochondrial) | DRSC08261 | 3.76e7 | 4.22e7 | – | 1.89e7 | 1.67e7 |
| Tango8 (Transport and Golgi organization 8) | DRSC06474 | 4.20e7 | 1.82e7 | – | 1.99e7 | 9.77e6 |
| AlaRS-m (Alanyl-tRNA synthetase, mitochondrial) | DRSC09660 | 5.28e7 | 5.05e7 | – | 3.16e7 | 1.89e7 |
| CG11566 (retired record) + stg1 | DRSC20473 | 3.23e7 | 4.26e7 | – | 2.04e7 | 2.04e7 |
| CG11566 (retired record) + stg1 | DRSC20481 | 3.69e7 | 4.95e7 | – | 2.14e7 | 2.33e7 |
| CG11566 (retired record) + stg1 | DRSC20482 | 3.40e7 | 4.51e7 | – | 1.99e7 | 1.91e7 |
| CG11566 (retired record) + stg1 | DRSC20483 | 3.70e7 | 4.46e7 | – | 2.23e7 | 2.08e7 |
| GluClalpha (Glutamate-gated chloride channel subunit alpha) | DRSC16680 | 4.78e7 | 4.87e7 | – | 4.22e7 | 2.15e7 |
| Xport-A + Xport-B | DRSC15586 | 3.97e7 | 3.28e7 | – | 2.01e7 | 1.43e7 |
| Non2 (Novel nucleolar protein 2) | DRSC08272 | 4.42e7 | 3.61e7 | – | 2.22e7 | 1.82e7 |
| Ir100a (Ionotropic receptor 100a) | DRSC14329 | 4.79e7 | 3.35e7 | 2.1 | 2.28e7 | 1.70e7 |
| bero (belly roll) | DRSC03211 | 4.28e7 | 4.72e7 | – | 2.18e7 | 2.04e7 |
| CG3638 | DRSC18533 | 4.82e7 | 5.68e7 | 2.1 | 2.33e7 | 2.32e7 |
| CG18547 | DRSC15345 | 3.72e7 | 2.97e7 | – | 1.87e7 | 1.55e7 |
| Mal-A3 (Maltase A3) | DRSC07462 | 3.92e7 | 4.22e7 | – | 1.86e7 | 1.87e7 |
| Ilp5 (Insulin-like peptide 5) | DRSC08998 | 2.95e7 | 4.65e7 | – | 1.46e7 | 2.18e7 |
| Cpr11B (Cuticular protein 11B) | DRSC19859 | 4.27e7 | 4.13e7 | – | 1.80e7 | 1.78e7 |
| CG15153 | DRSC02454 | 5.52e7 | 3.74e7 | – | 2.35e7 | 1.64e7 |
| P5CDh1 (delta-1-Pyrroline-5-carboxylate dehydrogenase 1) | DRSC11801 | 2.82e7 | 3.42e7 | – | 1.21e7 | 2.23e7 |
| magu | DRSC06832 | 3.99e7 | 3.38e7 | – | 1.68e7 | 1.62e7 |
| Spindly | DRSC00430 | 2.45e7 | 3.51e7 | – | 1.60e7 | 1.91e7 |
| CG6138 | DRSC02933 | 3.74e7 | 4.50e7 | – | 1.68e7 | 1.90e7 |
| CR10102 (pseudo) | DRSC05963 | 2.17e7 | 3.21e7 | – | 1.14e7 | 1.33e7 |
| CG10417 | DRSC04846 | 3.20e7 | – | – | 1.75e7 | – |
| CG15458 | DRSC20529 | 4.98e7 | 4.79e7 | – | 2.27e7 | 1.93e7 |
| I-t (inhibitor-t) | DRSC16713 | 4.19e7 | 3.54e7 | – | 2.16e7 | 1.96e7 |
| Ugt303B2 (UDP-glycosyltransferase family 303 member B2) | DRSC14198 | 3.38e7 | 3.28e7 | – | 1.88e7 | 1.46e7 |
| Ugt303B2 (UDP-glycosyltransferase family 303 member B2) | DRSC22864 | 2.02e7 | 3.65e7 | – | 1.19e7 | 1.61e7 |
| Tsp86D (Tetraspanin 86D) | DRSC15607 | 3.27e7 | 3.69e7 | – | 1.52e7 | 1.76e7 |
| Notum | DRSC09959 | 3.99e7 | 4.53e7 | – | 1.86e7 | 1.69e7 |
| ppk28 (pickpocket 28) | DRSC19919 | 3.30e7 | 3.07e7 | – | 1.71e7 | 1.49e7 |
| CG13154 | DRSC06279 | 2.47e7 | 3.27e7 | – | 1.42e7 | 1.72e7 |
| Aef1 (Adult enhancer factor 1) | DRSC11605 | 2.42e7 | 3.79e7 | – | 1.21e7 | 1.61e7 |
| fs(1)h (female sterile (1) homeotic) | DRSC18778 | 2.84e7 | 4.35e7 | – | 1.29e7 | 1.90e7 |
| E(spl)m5-HLH (Enhancer of split m5, helix-loop-helix) | DRSC16695 | 2.92e7 | 4.87e7 | – | 1.58e7 | 2.21e7 |
| CG18428 | DRSC15326 | 4.96e7 | 4.64e7 | – | 2.52e7 | 1.88e7 |
| AstCC (Allatostatin double C) | DRSC02404 | 3.39e7 | 4.94e7 | – | 1.63e7 | 2.15e7 |
| CG8939 | DRSC20127 | 3.09e7 | 3.22e7 | – | 1.56e7 | 1.65e7 |
| PCB (Pyruvate carboxylase) | DRSC05939 | 4.46e7 | 3.10e7 | – | 1.86e7 | 1.58e7 |
